Values of other authors in US7687497B2, “C10-substituted camptothecin analogs” (priority 2007, dated 2010).

Conditions: closed E-ring lactone form; cited from earlier work

For `CC[C@@]1(O)C(=O)OCc2c1cc1n(c2=O)Cc2cc3ccccc3nc2-1` [CPT, (S)-4-Ethyl-4-hydroxy-1H-pyrano[3′,4′:6,7]indolizino[1,2-b]quinoline-3,14(4H,12H)-dione], the solubility in water is given as “approximately 0.1 μg of drug dissolving in 1 mL of water”.
